From PubChem BioAssay AID624291 (National Center for Advancing Translational Sciences (NCATS), 2012)
The whole screen tested about 350,000 compounds, of which about 220 (0.063%) were called active. The inconclusive results got no clear call from the source; some entries with a clear call stand among them for comparison. The call rests on the fitted dose curve; in most records, active means well fitted activation curve with a large enough effect; inconclusive means small, poorly fitted or top-dose-only effect; inactive means no such curve, though single readings can be large or run the other way. Potencies of inconclusive entries are doubtful fits and often do not repeat.

Test: qHTS for Activators of Integrin-Mediated Alleviation for Muscular Dystrophy; further: nearly all actives have a fitted effect of over 60% in size;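 on activation: 100% = response of the positive control SU9516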
Settings: alpha7betagal myoblasts, beta-gal FDG fluorescence, 48 h; activation: at 38.3 µM (top of the series)
Text: Integrins are a diverse family of transmembrane cell surface receptors that mediate interactions between cells and the extracellular matrix. These heterodimeric proteins are composed of alpha and beta subunits and the a7b1 interacts with laminin in the extracellular matrix and actin of the cell cytoskeleton. Both chains contribute to ligand binding, but the alpha chain mediates the specificity of the interaction. The alpha7beta1 integrin is a major laminin receptor in skeletal, cardiac and vascular smooth muscle. Mutations in the alpha7 integrin gene are responsible for muscular dystrophy in both humans and mice. The alpha7beta1 integrin is also a major modifier of muscle disease progression in various muscle diseases including Duchenne muscular dystrophy, Fukuyama muscular dystrophy and merosin deficient congenital muscular dystrophy type 1A. […] Transcriptional regulation of the alpha7 integrin gene is poorly understood and probably involves multiple transcription factors. The goal of identifying small molecules that enhance alpha7 integrin expression is two-fold: firstly, such molecules would help us gain insight into the complex transcriptional control of alpha7 integrin. It is known that alpha7 integrin expression is tightly controlled during various stages of development, disease and in response to external stimuli. The second goal of the project is to translate the above finding into a therapeutic strategy for muscular dystrophy. […] Thus this project aims to discover small molecule probes that would not only help in gaining a better understanding of the complex regulatory mechanism of alpha7 integrin expression, but also lead to development of pharmacological agents to fight muscular dystrophy. NIH Chemical Genomics Center [NCGC] NIH Molecular Libraries Probe Centers Network [MLPCN] MLPCN Grant: NS058429 Assay Submitter (PI): Dean Burkin, University of Nevada School of Medicine
A total of 250 alpha7betagal+/- myoblasts at passage 13 were dispensed using a mulitdrop from Thermo into black low base tissue culture treated microclear aurora plates in 6 ul media containing DMEM without phenol, 5% FBS, 1x GluMax and 1x Penicillin/Streptomycin. The plates were incubated 16-24 hr at 37C, 5% CO2, 95% humidity covered with low evaporation stainless steel lids from Kalypsys. Compounds were then dispensed using a Kalypsys pintool to deliver 23 nl/well compounds in DMSO (diluted into 6 uL resulting in a 1:260 dilution of compound). The control compound used was the cdk2 inhibitor SU9516 from Tocirs (found in the initial LOPAC screen). The plates were incubated for 48 hours at 37C, 5% CO2, 95% humidity using the same stainless steel lids. After incubation with compound, 5 ul of the media was aspirated using the Kalypsys washer/dispenser and 3 ul of the Mammalian Protein Extraction Reagent (MPER) lysis buffer (Thermo Fisher) was added. The plates were spun at 2000 rpms to remove bubbles and an initial capture was acquired on the Viewlux (Perkin Elmer) with exciation at 480 nm and emission at 540 nm for 25 seconds to omit any auto fluorescent compounds. The plates were then incubated for 10 minutes at room temperature. After incubation, 3 ul of 125 uM Fluorescein di-galactoside (FDG) (Marker Gene Technologies) diluted in PBS with 2 mM MgCl2 and 0.2% betamercaptoethanol (BME) was added, the plates were spun at 2000 rpms and incubated for 30 minutes at room temperature. The plates were again read on the Viewlux with exciation at 480 nm and emission at 540 nm for 25 seconds.
Potency means the concentration at half of the fitted maximal effect.

Structure (SMILES)	Potency	activation
Cc1cccc(C(=O)C2CCOC(C)(C)C2)c1 (stereo not drawn)	inconclusive: 2.82 µM [activator, single point]	–
CSc1ccccc1NC(=O)COc1ccccc1C	inconclusive: 5.01 µM [activator, single point]	–
O=C(COC(=O)Cc1ccc(F)cc1)NCc1ccco1	inconclusive: 11.2 µM [activator, partial curve, poor fit]	–
CCOc1ccc(CNc2ccc3c(c2)nc(C)n3C)cc1	inactive	–
Cc1cc(C)n(Cc2ccc(C(=O)NN)o2)n1	inconclusive: 5.01 µM [activator, single point]	–
CC(C)(C)N(NC(=O)Nc1ccccc1)C(=O)c1ccccc1Cl	inconclusive: 12.6 µM [activator, partial curve, poor fit]	–
FC(F)(F)c1ccccc1NC(=S)NN=C1CCCCCC1	inactive	–
CC(CN1CCCCC1)OC(=O)c1ccccc1F (stereo not drawn)	inactive	–
COc1ccc(CNC(=O)COC(=O)C2CC3C=CC2C3)cc1 (stereo not drawn)	–	inconclusive: -51.1% [activator]
COc1ccccc1[C@@H]1C(c2cccc(C)c2)=NN(c2ccccc2)[C@H]1C(=O)N1CCOC1=O	inactive	–
CC(C)(C)OC(=O)N1CCC(c2c(C(=O)NCC3CCN(C4CCCC4)C3)cnn2-c2ccccc2)CC1 (stereo not drawn)	inconclusive: 5.01 µM [activator, single point]	–
COc1cccc(C(=O)Nc2cccc3c2ccc2cccn23)c1	inactive	–
CCN(CC)CCNC(=O)NC(=O)c1ccc(Cl)cc1	inconclusive: 3.98 µM [activator, full curve, poor fit]	–
N#Cc1nc(COc2ccccc2)oc1N1CCCC1	inconclusive: 2.51 µM [activator, full curve, poor fit]	–
COc1cccc(CNC(=O)CCS(=O)(=O)c2ccccc2Cl)c1	inconclusive: 5.01 µM [activator, single point]	–
CCOC(=O)/C=c1/s/c(=C/c2ccc3cc(OC)ccc3c2)c(=O)n1CC(=O)NCc1ccc2c(c1)OCO2	inactive	–
Cc1ccc(S(=O)(=O)CC(O)COc2ccc(F)cc2Cl)cc1 (stereo not drawn)	inactive	–
CC1CCN(S(=O)(=O)CCNC(=O)c2ccccc2)CC1	inactive	–
COC(=O)c1cc(S(=O)(=O)NCC2CCN(Cc3ccc(Cl)cc3)CC2)cn1C	inconclusive: 2.24 µM [activator, full curve, poor fit]	–
Cc1ccc(Cn2c(C)nc3ccc([N+](=O)[O-])cc3c2=O)cc1	inconclusive: 28.2 µM [activator, single point]	–
O=C(O)/C(=C\c1ccc(Br)cc1)NC(=O)c1cccs1	inconclusive: 0.501 µM [activator, full curve, poor fit]	–
C/C(=N\NC(=O)c1nnn(-c2nonc2N)c1CSc1ccc(Cl)cc1)c1cccnc1	inconclusive: 2.82 µM [activator, partial curve, poor fit]	–
CCC(/C=N/NC(=O)CCCCC(=O)N/N=C/C(CC)CC)CC	inconclusive: 28.2 µM [activator, single point]	–
CNC(=S)Nc1cc(S(=O)(=O)Nc2cc(Cl)ccc2Cl)ccc1N1CCCC1	inconclusive: 28.2 µM [activator, single point]	–

Structure (SMILES)	Potency	activation
Cc1nc2ccccc2cc1C(=O)O	inactive	–
O=C(O/N=C1/CCSc2ccccc21)c1ccc(F)cc1	inconclusive: 5.01 µM [activator, single point]	–
Cc1nc2c(o1)CCc1ccccc1C2N1CCN(C)CC1 (stereo not drawn)	inactive	–
COC(=O)c1[nH]c2ccc(C)cc2c1NC(=O)Oc1ccccc1	inactive	–
O=C(Nc1cccc(C(F)(F)F)c1)C1C2CC3OC(=O)C1C3C2 (stereo not drawn)	inconclusive: 3.55 µM [activator, single point]	–
Cc1cccc(-n2c(Cc3ccccc3)n[nH]c2=S)c1	–	inconclusive: 24.9% [activator]
COCCCNC(=O)c1c(N)n(-c2ccc3c(c2)OCO3)c2nc3ccccc3nc12	inconclusive: 11.2 µM [activator, partial curve, poor fit]	–
COc1ccc(CN2CCCC(C(=O)c3ccc(SC)cc3)C2)cc1Cn1cccn1 (stereo not drawn)	inactive	–
CCn1nc(NC(=O)c2ccccc2)c2cc3cccc(C)c3nc21	inactive	–
O=C(O)c1ccccc1-c1ccccc1C(=O)Nc1ccc(-c2nc3cc(Cl)ccc3o2)cc1	inactive	–
O=C(COC(=O)c1cc(=O)[nH]c2ccccc12)Nc1nccs1	inconclusive: 5.01 µM [activator, single point]	–
COc1cc(CCC(=O)Nc2ccc(S(=O)(=O)N3CCOCC3)cc2)cc(OC)c1OC	inconclusive: 3.16 µM [activator, single point]	–
NC(=O)NC(=O)COC(=O)c1sc2ccccc2c1Cl	inconclusive: 2.24 µM [activator, single point]	–
CCCCC(O)(c1ccc(OC)cc1)C(CN1CCOCC1)c1ccccc1 (stereo not drawn)	inconclusive: 5.01 µM [activator, single point]	–
O=C(NCCc1c[nH]c2ccccc12)OCCCCOC(=O)NCCc1c[nH]c2ccccc12	inactive	–
Cc1cc(C)c(OCC(=O)Nc2nc(-c3ccccn3)cs2)c(C)c1	inactive	–
CN(C)C(=O)Nc1ccccc1	inactive	–
CCN(CC)C(=O)COc1ccc(C=O)cc1OC	inconclusive: 5.62 µM [activator, partial curve, poor fit]	–
C/C=C/COC(=O)c1[nH]c2c(c1C)C(=O)CC(c1ccc(N(C)C)cc1)C2 (stereo not drawn)	inactive	–
COC(=O)c1ccc(C(=O)NCCCCO)cc1	inconclusive: 8.91 µM [activator, partial curve, poor fit]	–
CC(C)n1nc(C(=O)Nc2cccc(S(=O)(=O)NCc3ccco3)c2)c2ccccc2c1=O	inconclusive: 28.2 µM [activator, single point]	–
CCCc1nnc(SCC(=O)N2CCCC(C)C2)n1CCOC (stereo not drawn)	inactive	–
CS(=O)(=O)Nc1ccc(Br)cc1C(=O)c1ccccc1	inconclusive: 17.8 µM [activator, single point]	–
Cc1noc(C)c1COc1ccc(C(=O)N2CCN(c3ccccc3O)CC2)cc1	inactive	–

Entries of single compounds from above:
`CS(=O)(=O)Nc1ccc(Br)cc1C(=O)c1ccccc1` is entered as Potency: inconclusive: 17.8 µM [activator, single point]
`Cc1noc(C)c1COc1ccc(C(=O)N2CCN(c3ccccc3O)CC2)cc1` is entered as Potency: inactive
`CCCc1nnc(SCC(=O)N2CCCC(C)C2)n1CCOC` (stereo not drawn) is entered as Potency: inactive
